Reference: article PMC4887207, “Viral hijacking of a replicative helicase loader and its implications for helicase loading control and phage replication” (eLife, 2016)
No constants are given. Whether binding was seen depends on the method and setting. Some binding calls cover weakened binding; strength is not graded here.

Key:
[1] = molecular target: T1, full-length Staphylococcus aureus DnaI (Staphylococcus aureus) (UniProt Q3ZUA6); experiment: SEC; analytical gel filtration, 5/150 GL Superdex 200; 20 mM Tris-HCl pH 8.0, 200 mM NaCl, 5% glycerol, 5 mM MgCl2, 1 mM BME, 10 mM ATP; 7 µM SaDnaC, 14 µM SaDnaI, 14 µM 77ORF013, 30 µM 77ORF104; peak fractions on SDS-PAGE; both purified
T1 sequence: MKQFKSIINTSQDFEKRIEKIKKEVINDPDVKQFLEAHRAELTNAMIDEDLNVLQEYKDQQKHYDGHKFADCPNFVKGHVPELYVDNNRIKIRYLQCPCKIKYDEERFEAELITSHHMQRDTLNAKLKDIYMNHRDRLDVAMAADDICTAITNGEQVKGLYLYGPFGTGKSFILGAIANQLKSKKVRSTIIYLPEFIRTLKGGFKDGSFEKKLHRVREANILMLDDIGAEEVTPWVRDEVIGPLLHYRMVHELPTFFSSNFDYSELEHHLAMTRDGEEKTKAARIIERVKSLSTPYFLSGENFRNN

[2] = molecular target: T1, full-length Staphylococcus aureus DnaI (Staphylococcus aureus); experiment: pull-down; amylose pull-down of His6MBP-77ORF104 with SaDnaI and SaDnaC in the presence of nucleotide; not shown; both purified
[3] = molecular target: T1, full-length Staphylococcus aureus DnaI (Staphylococcus aureus); experiment: pull-down; amylose pull-down, His6MBP-tagged protein as bait (10 µM), untagged protein as prey (20 µM); without ATP or nucleotide where stated (Figures 2C, 4C), ATP not told for the other panels; 20 mM HEPES-KOH pH 7.5, 100 mM NaCl, 5 mM MgCl2, 10% glycerol, 1 mM DTT, 25°C; SDS-PAGE; both purified

Measured: binding

B1: SaDnaC replicative helicase (natural protein, Staphylococcus aureus, UniProt Q9AQH7 1-466, looked up)
chain: MDRMYEQNQMPHNNEAEQSVLGSIIIDPELINTTQEVLLPESFYRGAHQHIFRAMMHLNEDNKEIDVVTLMDQLSTEGTLNEAGGPQYLAELSTNVPTTRNVQYYTDIVSKHALKRRLIQTADSIANDGYNDELELDAILSDAERRILELSSSRESDGFKDIRDVLGQVYETAEELDQNSGQTPGIPTGYRDLDQMTAGFNRNDLIILAARPSVGKTAFALNIAQKVATHEDMYTVGIFSLEMGADQLATRMICSSGNVDSNRLRTGTMTEEDWSRFTIAVGKLSRTKIFIDDTPGIRINDLRSKCRRLKQEHGLDMIVIDYLQLIQGSGSRASDNRQQEVSEISRTLKALARELKCPVIALSQLSRGVEQRQDKRPMMSDIRESGSIEQDADIVAFLYRDDYYNRGGDEDDDDDGGFEPQTNDENGEIEIIIAKQRNGPTGTVKLHFMKQYNKFTDIDYAHADMM
notes: Staphylococcus aureus replicative helicase DnaC (a DnaB-family helicase); also called S. aureus DnaC replicative helicase; host helicase; not shown: His6, N-terminal, cleaved; MBP, N-terminal, cleaved
binds: all assays above
